In this experiment the target is Rbm24a-GFP (maternal, from the rbm24a-GFP knock-in line) (zebrafish). Description: affinity purification with mass spectrometry; GFP-Trap agarose beads on precleared lysates of about 2200 rbm24a-GFP KI embryos at 4 hpf, wild-type embryos as control; 10 mM Tris-HCl pH 7.5, 150 mM NaCl, 0.5 mM EDTA, 0.5% NP-40; 4 °C overnight; SDS-PAGE, gel pieces, LC-MS/MS.

No constants are given. Whether binding was seen depends on the method and setting. In cells and extracts the contact can be indirect. Here binding means that the protein was enriched with, or labelled near, the bait; the list need not be complete.

B1: Bucky ball (Buc), endogenous (protein, UniProt H0WFA5 1-639)
chain: MEGINNNSQPMGVGQPHHPVNHTRPFFYVQPPSQPYFMYQWPMNPYGHYGFPGPALHFGRPYMAPYQFMQYPGYVIPHAPMQPIDYRRINPHYPSVASYDLRVRHHFQNAGMHRETACSEVQTDPSDSVNKLIDKIESLKACELGSDKGPNNVVSSTPDVVQGEKLTRLNEDSNLEVATKECKEDPVTRPTTYSDSAYDAESSQGRLDECVFSDVLPLDSSSVHEEEEEEEKDVNEEDEPQTVADEICSQNEMSASTTSNVFCSGVQSIADPTECHDLEKLGDEQKQDIPSADAAAVIEPLISLSEDFDLPYQILRLPCNKTTTGLSLEREIDPLVYFDSPSTLLPPQNYLSSIGSAYSYSYYPQVTQERQSVLSPSIDELSSRDEMFSTDVEDLEVVPGHVYVGGGRLAEASDMPVRSRKELPSVDKTCSVCQKTCACCGSTLQDEVGMCKMAEHSHPERDEMSDQDCDYDLEAEVRSNCESPRVSKRKCCSRHALPSCGHHCAKHRHRKLLCEGQESCDLREQARVHPKGECCEEYGALAKADKRIQKGALCRPCIEQQWREGVVSDQENWASCGAKPRSWRQVTGPQDQGRTPLRRSTCKSIHQQRPRSEYNDYDETEFTYCQRGRGSMKKRGSRY
For B1, the binding result is recorded as “binds”.

The values are drawn from PMC12130248.
